Assay results as given in PMC4489720.
Results are given in words; binding and its absence hold for the method and conditions named. For part of these data: A result given as binding can be weak or reduced; the word gives no strength.

The chains behind the UniProt entries cited, without tags or fusion partners. Where a name states a change or a piece, a line headed by the entry shows the natural chain unless it says otherwise.
UniProt I1X0L2: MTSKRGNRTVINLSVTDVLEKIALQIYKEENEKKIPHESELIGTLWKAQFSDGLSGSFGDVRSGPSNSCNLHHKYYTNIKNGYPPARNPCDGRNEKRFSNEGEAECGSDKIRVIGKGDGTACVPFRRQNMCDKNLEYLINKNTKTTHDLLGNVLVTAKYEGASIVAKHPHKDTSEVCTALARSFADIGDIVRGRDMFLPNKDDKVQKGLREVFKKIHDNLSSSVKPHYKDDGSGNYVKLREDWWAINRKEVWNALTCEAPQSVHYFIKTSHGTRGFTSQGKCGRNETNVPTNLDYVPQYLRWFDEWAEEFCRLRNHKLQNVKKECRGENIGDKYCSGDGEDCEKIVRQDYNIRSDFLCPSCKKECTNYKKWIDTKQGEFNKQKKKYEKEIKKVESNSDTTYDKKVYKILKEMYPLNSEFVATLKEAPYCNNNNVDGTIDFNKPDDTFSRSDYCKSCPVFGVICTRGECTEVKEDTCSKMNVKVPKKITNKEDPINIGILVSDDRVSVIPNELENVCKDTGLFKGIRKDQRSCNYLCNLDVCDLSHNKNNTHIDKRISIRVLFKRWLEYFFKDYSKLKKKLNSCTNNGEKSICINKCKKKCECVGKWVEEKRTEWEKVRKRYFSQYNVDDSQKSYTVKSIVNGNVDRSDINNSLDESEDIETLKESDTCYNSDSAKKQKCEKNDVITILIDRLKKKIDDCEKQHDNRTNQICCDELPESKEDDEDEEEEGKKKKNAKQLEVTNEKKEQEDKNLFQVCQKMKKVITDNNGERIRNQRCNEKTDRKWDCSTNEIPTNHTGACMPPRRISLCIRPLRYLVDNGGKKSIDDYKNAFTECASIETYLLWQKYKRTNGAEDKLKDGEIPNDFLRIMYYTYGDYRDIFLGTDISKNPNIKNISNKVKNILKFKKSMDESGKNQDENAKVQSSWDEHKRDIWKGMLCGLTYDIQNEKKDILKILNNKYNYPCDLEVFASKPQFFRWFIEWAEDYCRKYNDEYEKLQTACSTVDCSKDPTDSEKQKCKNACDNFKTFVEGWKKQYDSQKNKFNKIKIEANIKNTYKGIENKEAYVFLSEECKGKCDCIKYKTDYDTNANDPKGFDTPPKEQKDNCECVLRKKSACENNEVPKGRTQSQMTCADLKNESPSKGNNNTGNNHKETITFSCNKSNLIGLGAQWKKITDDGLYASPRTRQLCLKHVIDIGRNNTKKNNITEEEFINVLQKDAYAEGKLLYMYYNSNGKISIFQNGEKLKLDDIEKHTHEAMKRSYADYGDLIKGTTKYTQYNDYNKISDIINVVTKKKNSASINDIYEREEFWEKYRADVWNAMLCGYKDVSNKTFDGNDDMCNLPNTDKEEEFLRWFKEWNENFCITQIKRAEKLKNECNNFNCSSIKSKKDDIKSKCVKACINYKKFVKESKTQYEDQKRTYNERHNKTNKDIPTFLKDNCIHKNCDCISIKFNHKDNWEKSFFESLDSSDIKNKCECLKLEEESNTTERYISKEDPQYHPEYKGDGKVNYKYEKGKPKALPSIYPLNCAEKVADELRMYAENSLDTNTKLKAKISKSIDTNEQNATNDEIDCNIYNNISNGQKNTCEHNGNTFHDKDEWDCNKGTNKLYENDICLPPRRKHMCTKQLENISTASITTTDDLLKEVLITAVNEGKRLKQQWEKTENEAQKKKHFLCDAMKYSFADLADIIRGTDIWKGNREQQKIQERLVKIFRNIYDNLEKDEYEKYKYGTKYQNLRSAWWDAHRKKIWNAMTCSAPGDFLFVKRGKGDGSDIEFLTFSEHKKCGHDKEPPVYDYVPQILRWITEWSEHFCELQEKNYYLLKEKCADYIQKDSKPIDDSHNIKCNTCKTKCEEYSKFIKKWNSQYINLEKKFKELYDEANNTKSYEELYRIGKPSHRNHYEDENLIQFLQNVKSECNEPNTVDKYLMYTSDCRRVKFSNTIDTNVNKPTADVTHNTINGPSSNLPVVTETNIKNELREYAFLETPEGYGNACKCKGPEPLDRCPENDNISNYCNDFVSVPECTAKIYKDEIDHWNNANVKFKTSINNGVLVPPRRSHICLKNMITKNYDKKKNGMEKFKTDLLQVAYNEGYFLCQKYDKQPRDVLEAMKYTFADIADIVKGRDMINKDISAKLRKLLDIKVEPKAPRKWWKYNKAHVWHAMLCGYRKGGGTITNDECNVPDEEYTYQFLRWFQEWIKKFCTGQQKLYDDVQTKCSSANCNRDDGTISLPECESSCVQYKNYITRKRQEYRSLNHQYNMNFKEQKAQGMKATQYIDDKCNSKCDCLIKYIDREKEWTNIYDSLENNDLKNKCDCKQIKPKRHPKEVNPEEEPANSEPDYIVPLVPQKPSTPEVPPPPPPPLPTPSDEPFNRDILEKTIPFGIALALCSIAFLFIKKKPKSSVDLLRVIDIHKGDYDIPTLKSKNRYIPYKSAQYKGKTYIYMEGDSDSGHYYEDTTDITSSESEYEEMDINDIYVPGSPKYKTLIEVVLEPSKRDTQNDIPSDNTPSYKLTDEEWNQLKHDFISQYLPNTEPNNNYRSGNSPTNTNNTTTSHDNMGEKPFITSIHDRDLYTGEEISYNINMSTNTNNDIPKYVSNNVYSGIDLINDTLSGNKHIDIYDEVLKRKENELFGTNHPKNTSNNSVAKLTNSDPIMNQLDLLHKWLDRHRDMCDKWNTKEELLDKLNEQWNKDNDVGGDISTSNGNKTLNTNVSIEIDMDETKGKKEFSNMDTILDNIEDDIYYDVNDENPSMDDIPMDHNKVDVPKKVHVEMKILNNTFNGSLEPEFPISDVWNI

Assays:
[1] = target: recombinant HB3VAR06 single-domain construct DBLξ2 (D8) (P. falciparum HB3); assay: ELISA; MaxiSorp plates coated with recombinant PfEMP1 constructs (18 nM, overnight, 4°C); blocked in TSM buffer with 1% Ig-free BSA; α2M or α2M-MA (10 nM; titrated in Fig 2A); detected with anti-α2M antibodies; both purified
[2] = target: native HB3VAR06 on infected erythrocytes (P. falciparum HB3); assay: flow cytometry on cells; late-stage infected erythrocytes (1x10^5) incubated 30 min at room temperature with α2M or α2M-MA (10 nM; titrated in Fig 2B) or IgM; detected with anti-α2M or anti-human IgM antibodies; in competition assays α2M and IgM added in separate steps; only the binder purified
[3] = target: PfEMP1 TM284var1 on infected erythrocytes (P. falciparum) (UniProt I1X0L2); assay: as above
[4] = target: PfEMP1 protein VarO on infected erythrocytes (P. falciparum); assay: as above
[5] = target: native IT4VAR04 on infected erythrocytes (P. falciparum IT4); assay: as above
[6] = target: PfEMP1 protein PF13_0003 on infected erythrocytes (P. falciparum 3D7); assay: as above

B1: α2-macroglobulin (α2M), native (protein, UniProt P01023 24-1474)
chain: SVSGKPQYMVLVPSLLHTETTEKGCVLLSYLNETVTVSASLESVRGNRSLFTDLEAENDVLHCVAFAVPKSSSNEEVMFLTVQVKGPTQEFKKRTTVMVKNEDSLVFVQTDKSIYKPGQTVKFRVVSMDENFHPLNELIPLVYIQDPKGNRIAQWQSFQLEGGLKQFSFPLSSEPFQGSYKVVVQKKSGGRTEHPFTVEEFVLPKFEVQVTVPKIITILEEEMNVSVCGLYTYGKPVPGHVTVSICRKYSDASDCHGEDSQAFCEKFSGQLNSHGCFYQQVKTKVFQLKRKEYEMKLHTEAQIQEEGTVVELTGRQSSEITRTITKLSFVKVDSHFRQGIPFFGQVRLVDGKGVPIPNKVIFIRGNEANYYSNATTDEHGLVQFSINTTNVMGTSLTVRVNYKDRSPCYGYQWVSEEHEEAHHTAYLVFSPSKSFVHLEPMSHELPCGHTQTVQAHYILNGGTLLGLKKLSFYYLIMAKGGIVRTGTHGLLVKQEDMKGHFSISIPVKSDIAPVARLLIYAVLPTGDVIGDSAKYDVENCLANKVDLSFSPSQSLPASHAHLRVTAAPQSVCALRAVDQSVLLMKPDAELSASSVYNLLPEKDLTGFPGPLNDQDNEDCINRHNVYINGITYTPVSSTNEKDMYSFLEDMGLKAFTNSKIRKPKMCPQLQQYEMHGPEGLRVGFYESDVMGRGHARLVHVEEPHTETVRKYFPETWIWDLVVVNSAGVAEVGVTVPDTITEWKAGAFCLSEDAGLGISSTASLRAFQPFFVELTMPYSVIRGEAFTLKATVLNYLPKCIRVSVQLEASPAFLAVPVEKEQAPHCICANGRQTVSWAVTPKSLGNVNFTVSAEALESQELCGTEVPSVPEHGRKDTVIKPLLVEPEGLEKETTFNSLLCPSGGEVSEELSLKLPPNVVEESARASVSVLGDILGSAMQNTQNLLQMPYGCGEQNMVLFAPNIYVLDYLNETQQLTPEIKSKAIGYLNTGYQRQLNYKHYDGSYSTFGERYGRNQGNTWLTAFVLKTFAQARAYIFIDEAHITQALIWLSQRQKDNGCFRSSGSLLNNAIKGGVEDEVTLSAYITIALLEIPLTVTHPVVRNALFCLESAWKTAQEGDHGSHVYTKALLAYAFALAGNQDKRKEVLKSLNEEAVKKDNSVHWERPQKPKAPVGHFYEPQAPSAEVEMTSYVLLAYLTAQPAPTSEDLTSATNIVKWITKQQNAQGGFSSTQDTVVALHALSKYGAATFTRTGKAAQVTIQSSGTFSSKFQVDNNNRLLLQQVSLPELPGEYSMKVTGEGCVYLQTSLKYNILPEKEEFPFALGVQTLPQTCDEPKAHTSFQISLSVSYTGSRSASNMAIVDVKMVSGFIPLKPTVKMLERSNHVSRTEVSSNHVLIYLDKVSNQTLSLFFTVLQDVPVRDLKPAIVKVYDYYETDEFAIAEYNAPCSKDLGNA
binding [1]: binds
binding [2]: binds
binding [3]: binds
binding [4]: binds
binding [5]: no binding (tested: 10 nM)
binding [6]: binds
